Results from the supplement of paper PMC4371806.
Over roughly 2,300 compounds, “plate-normalized OD600 growth (mean of duplicates)” has its median near 0.29; the lowest 2% begin near 0.22. This is one part of the list.

System: Escherichia coli BW25113
Assay: plate-normalized OD600 growth (mean of duplicates) (OD600 (normalized)); higher = more growth (less inhibition)
Details: 10 µM
Protocol: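 E. coli BW25113 in LB (100 µl, 96-well, no shaking) was exposed to 10 µM of each compound from a ~30,000-member library and grown at 37°C for 24 h or 15°C for 48 h, in duplicate. Growth was read as OD600 and the duplicate ODs were normalized across screening plates to correct plate-to-plate variation. Hits were >3σ below the mean OD600 at 15°C and <2σ below the mean at 37°C.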

| SMILES | plate-normalized OD600 growth (temperature: 15°C, 48 h) | plate-normalized OD600 growth (temperature: 37°C, 24 h) |
| --- | --- | --- |
| O=C(NC(=S)Nc1ccc(N2CCCCC2)cc1)c1cc2ccccc2o1 | 0.248 | 0.616 |
| CCCCNS(=O)(=O)c1cnn(-c2ccccc2)c1Cl | 0.233 | 0.607 |
| O=[N+]([O-])c1ccc(Nc2nc(N/N=C/c3ccc(Cl)cc3)nc(N3CCCC3)n2)cc1 | 0.251 | 0.589 |
| COc1cc(C2Sc3ccccc3NC3=C2C(=O)OC3)cc(OC)c1OC (stereo not given) | 0.247 | 0.611 |
| COc1cc(C=NCc2ccco2)ccc1O | 0.242 | 0.622 |
| O=C1C2C(c3ccc(Cl)cc3)OC3(C(=O)c4ccccc4C3=O)C2C(=O)N1CCc1ccccc1 (stereo not given) | 0.27 | 0.628 |
| c1ccc(-c2cc3c(nn2)CCc2nonc2-3)cc1 | 0.27 | 0.648 |
| CC(=O)Nc1cc2ccccc2oc1=O | 0.249 | 0.601 |
| COC(=O)C1=C(C)NC2=C(C(=O)CC(c3ccc(OC)cc3)C2)C1c1cccc2ccccc12 (stereo not given) | 0.245 | 0.611 |
| Cc1nn(C)c(C)c1[N+](=O)[O-] | 0.259 | 0.621 |
| CCC(=O)NNc1cc(N2CCCC2)nc(N2CCCC2)n1 | 0.234 | 0.622 |
| CCOC(=O)c1cc(C#N)c(C(C#N)c2nc3ccccc3s2)nc1N (stereo not given) | 0.249 | 0.608 |
| CCOc1cccc(=O)c2c(C)n(-c3ccc4c(c3)OCO4)c(C)c12 | 0.23 | 0.645 |
| Cc1ccc(N=Cc2ccc(SCC(=O)Nc3ccccc3)o2)cc1 | 0.234 | 0.619 |
| O=C(Nc1ccncc1)C1COc2ccccc2O1 (stereo not given) | 0.251 | 0.601 |
| CCNc1nc(NCC)n2c(SCC(=O)N(c3ccccc3)c3ccccc3)nnc2n1 | 0.241 | 0.631 |
| COc1cc(C2C(C(=O)Nc3ccccc3)=C(C)Nc3nc4ccccc4n32)c([N+](=O)[O-])cc1OC (stereo not given) | 0.239 | 0.614 |
| CCCCCCCCc1nnc(N)s1 | 0.252 | 0.628 |
| O=C(CC1(O)C(=O)C=C(c2ccccc2)N1N=C(c1ccccc1)c1ccccc1)c1ccccc1 (stereo not given) | 0.242 | 0.588 |
| NC(=O)c1cnc(NCCc2ccc(O)c(Cl)c2)nc1NCc1ccccc1 | 0.26 | 0.622 |
| c1ccc(N2CCN(Cc3cn4ccccc4n3)CC2)nc1 | 0.263 | 0.632 |
| Cc1nc2ccccc2nc1N=C(N)NC(=O)c1ccccc1 | 0.232 | 0.629 |
| CC/C(=N\Nc1nc(-c2ccc(I)cc2)cs1)c1ccc(Cl)cc1 | 0.252 | 0.634 |
| O=C(COc1nsnc1N1CCOCC1)Nc1cccc(F)c1 | 0.231 | 0.615 |

| SMILES | plate-normalized OD600 growth (temperature: 15°C, 48 h) | plate-normalized OD600 growth (temperature: 37°C, 24 h) |
| --- | --- | --- |
| CC1CN=C(NC2CCCCC2)S1 (stereo not given) | 0.249 | 0.615 |
| O=C(c1cccc([N+](=O)[O-])c1)c1cc2cc(Br)cc(Br)c2o1 | 0.298 | 0.626 |
| Clc1nc(Nc2nc(-c3ccccc3)cs2)nc(Oc2ccccc2)n1 | 0.248 | 0.613 |
| O=C(O)C1CC(=O)N(Cc2ccccc2)C(=Nc2ccc(F)cc2)S1 (stereo not given) | 0.221 | 0.601 |
| CC1COCCN1c1cc(N2CCCCC2C(F)(F)F)[nH]c(=O)c1 (stereo not given) | 0.265 | 0.635 |
| C/C(=N\NC(=O)CNC(=O)C(c1ccccc1)c1ccccc1)c1ccc2ccccc2c1 | 0.244 | 0.633 |
| COC(=O)c1sc(-c2cccs2)cc1NC(=O)/C=C/C(=O)O | 0.242 | 0.632 |
| CN(C(=O)CCN1C(=O)C(C)(C)Nc2ccccc21)c1ccccc1 | 0.26 | 0.611 |
| Cc1cccc(C)c1NC(=O)C(C)Oc1ccc(Cl)cc1Cl (stereo not given) | 0.255 | 0.608 |
| O=C1CCNc2ccc(-c3ccccc3)cc21 | 0.244 | 0.637 |
| CCOc1ccc(S(=O)(=O)NCCc2c(C)[nH]c3c(C)cccc23)c2ccccc12 | 0.251 | 0.62 |
| CSc1nc2ccc(NC(=O)c3c(-c4ccccc4)noc3C)cc2s1 | 0.262 | 0.611 |
| Oc1ccc(N=Nc2n[nH]c(-c3ccccc3)n2)cc1 | 0.25 | 0.625 |
| CC(=O)Nc1c2c3c(cccc3n(C)c1=O)C(=O)c1ccccc1-2 | 0.229 | 0.632 |
| CCCCCCCNC1CC(=O)N(c2ccc(Br)cc2)C1=O (stereo not given) | 0.243 | 0.629 |
| CCOc1ccc(C(CC(=O)O)NC(=O)c2c(-c3ccccc3)noc2C)cc1 (stereo not given) | 0.243 | 0.616 |
| O=C(c1ccccc1Br)N1CCN(c2ccc([N+](=O)[O-])c(N3CCOCC3)c2)CC1 | 0.246 | 0.611 |
| O=C(Nc1ccccc1)Nn1c(-c2ccccc2)nc2ccc(I)cc2c1=O | 0.253 | 0.614 |
| CN(C)/C=C1\C(=O)c2ccccc2N(C)S1(=O)=O | 0.251 | 0.643 |
| O=S(=O)(c1ccc(Cl)cc1)N1CCN(c2ccnc3cc(Cl)ccc23)CC1 | 0.269 | 0.636 |
| NNC(=O)CSc1c(-c2cccs2)[nH]c2ccccc12 | 0.23 | 0.617 |
| COc1ccc(-c2cc(-c3ccc(Cl)c(Cl)c3)nc(N)c2C#N)cc1OC | 0.237 | 0.611 |
| N#CC(C#N)=CNc1cc(C(F)(F)F)ccc1N1CCCCC1 | 0.247 | 0.626 |
| Nn1cnnc1N/N=C/c1ccc(-c2ccc(OC(F)(F)F)cc2)o1 | 0.256 | 0.626 |

2 neighbouring compounds already listed, for reference:

| SMILES | plate-normalized OD600 growth (temperature: 15°C, 48 h) | plate-normalized OD600 growth (temperature: 37°C, 24 h) |
| --- | --- | --- |
| COC(=O)c1sc(-c2cccs2)cc1NC(=O)/C=C/C(=O)O | 0.242 | 0.632 |
| CN(C(=O)CCN1C(=O)C(C)(C)Nc2ccccc21)c1ccccc1 | 0.26 | 0.611 |

(list continues)

| SMILES | plate-normalized OD600 growth (temperature: 15°C, 48 h) | plate-normalized OD600 growth (temperature: 37°C, 24 h) |
| --- | --- | --- |
| Nc1nonc1C(=NCc1ccccc1)NOCc1ccc(Cl)cc1Cl | 0.256 | 0.617 |
| CCOc1ccc(C(CC(=O)O)NC(C)=O)cc1 (stereo not given) | 0.26 | 0.606 |
| C/C(=N\NC(=O)CNC(=O)C(c1ccccc1)c1ccccc1)c1ccc(C)cc1 | 0.263 | 0.607 |
| CC(=O)Nc1ccc(S(=O)(=O)NN2C(=O)/C(=C/c3ccco3)N=C2c2ccccc2)cc1 | 0.258 | 0.617 |
| COc1ccc(OC)c(CNc2ccc3c(c2)nc(C)n3C)c1 | 0.25 | 0.63 |
| O=C(CSc1nnc(-c2ccncc2)n1-c1ccc(Cl)cc1)Nc1ccc2cn[nH]c2c1 | 0.247 | 0.592 |
| CC1=C(C(=O)Nc2ccccc2C)C(c2cccs2)C(C#N)=C(SCC(=O)Nc2cccc(Cl)c2)N1 (stereo not given) | 0.25 | 0.618 |
| Cc1cc(=O)n(-c2ccccc2)n1CNc1nccs1 | 0.258 | 0.602 |
| CCN(CC)CCNC(=O)c1c(C)oc2cc3c(C(=O)NCCN(CC)CC)c(C)oc3cc12 | 0.239 | 0.624 |
| COc1cc(Cl)c(Cl)cc1Cl | 0.251 | 0.604 |
| COc1cc(O)ccc1/C=N/NC(=O)c1cccc([N+](=O)[O-])c1 | 0.248 | 0.614 |
| CCOc1ccc(C(CC(=O)O)NC(=O)c2cccc([N+](=O)[O-])c2)cc1OC (stereo not given) | 0.245 | 0.643 |
| COc1ccc(NC(=O)CC2C(=O)N(c3ccc(OC)cc3)C(=S)N2CCCn2nc(C(F)(F)F)cc2C(F)(F)F)cc1 (stereo not given) | 0.252 | 0.61 |
| COc1ccc(N2CC(=O)N(/N=C/c3ccccc3Cl)C2=S)cc1 | 0.259 | 0.629 |
| CC1(C)COC(=CC(=O)c2ccc(Cl)cc2)N1 | 0.237 | 0.612 |
| CCCc1cc(=O)c2ccc(O)cc2o1 | 0.259 | 0.611 |
| Nc1nc(-c2ccccc2)nc(-n2cccc2)n1 | 0.231 | 0.608 |
| O=S(=O)(c1cccc2ccccc12)N1CCN(c2ccc(Cl)c(Cl)c2)CC1 | 0.256 | 0.62 |
| C=CCc1cc(-c2cc(C(=O)O)c3c(ccc4ccccc43)n2)cc(OC)c1O | 0.259 | 0.622 |
| COc1ccc(C2NCC(C(=O)O)S2)cc1 (stereo not given) | 0.249 | 0.615 |
| CCc1nnc(NC(=O)COC(=O)CSc2nc(-c3ccccc3)cc(-c3ccccc3)n2)s1 | 0.238 | 0.627 |
| COc1cc(C(=S)N2CCCCC2)ccc1OC(=O)c1ccccc1 | 0.00796 | 0.606 |
| N#C/C(=C\c1cccn1-c1ccc(OC(F)(F)F)cc1)S(=O)(=O)c1ccccc1 | 0.237 | 0.618 |
| COc1ccc(C2CC(=O)C3=C(C2)Nc2ccccc2NC3c2ccccn2)cc1 (stereo not given) | 0.253 | 0.611 |

| SMILES | plate-normalized OD600 growth (temperature: 15°C, 48 h) | plate-normalized OD600 growth (temperature: 37°C, 24 h) |
| --- | --- | --- |
| CCCCNC(=O)CSc1nc2ccc(N)cc2s1 | 0.252 | 0.608 |
| c1ccc(C2CC(c3cccs3)n3ncnc3N2)cc1 (stereo not given) | 0.256 | 0.605 |
| Cc1cc(NC(=NS(=O)(=O)c2ccc(Br)cc2)c2ccccc2)c(Cl)c(C)c1O | 0.214 | 0.634 |
| Cc1ccc2nc(/C(C#N)=C/c3cc([N+](=O)[O-])c(N4CCOCC4)cc3N3CCOCC3)[nH]c2c1 | 0.244 | 0.618 |
| CC(C)(C)NC(=S)NC1CCN(Cc2ccccc2)CC1 | 0.246 | 0.615 |
| COc1c(Cl)cnc(Cl)c1C(N)=O | 0.265 | 0.636 |
| Cc1ccc(C(=O)NCCc2ccccc2)cc1 | 0.248 | 0.593 |
| O=C(N/N=C\c1cccs1)c1ccccc1CO | 0.241 | 0.614 |
| c1ccc(-c2nc3nnnn3nc2-c2ccccc2)cc1 | 0.242 | 0.616 |
| Cc1ccc(C2CC(=O)C3=C(C2)Nc2ccccc2N(C(=O)C2CC2)C3c2cccnc2)cc1 (stereo not given) | 0.253 | 0.629 |
| Cc1ccnc(NC(=O)c2cccs2)c1 | 0.259 | 0.621 |
| Cc1ccc(Oc2ccc(C)cc2)cc1 | 0.243 | 0.645 |
| CC(C)Oc1ccc(C(=O)CCN2CCOCC2)cc1 | 0.237 | 0.608 |
| CC(Oc1ccc(Br)cc1)C(=O)NNC(=O)c1cc2cc(Br)ccc2oc1=O (stereo not given) | 0.227 | 0.612 |
| Cc1cccc(NC(=O)c2cccs2)n1 | 0.246 | 0.616 |
| CCOC(=O)C1=C(c2ccccc2)OC(N)=C(C#N)C1c1cc([N+](=O)[O-])cs1 (stereo not given) | 0.238 | 0.609 |
| CC(=O)Nc1ccc(NC(C)=O)c(NC2OCC(O)C(O)C2O)c1 (stereo not given) | 0.243 | 0.624 |
| O=C1/C(=C/c2cccc(OCc3ccc(Cl)cc3)c2)Sc2ccccc21 | 0.227 | 0.645 |
| N#C/C(=C\Nc1ccc2c(c1)OCCO2)S(=O)(=O)c1ccc(C(F)(F)F)cn1 | 0.268 | 0.625 |
| O=C(CNC(=O)C(c1ccccc1)c1ccccc1)N/N=C/c1cc(Br)ccc1O | 0.237 | 0.617 |
| CCCOc1ccccc1/C=N\NC(=S)Nc1cccc(F)c1 | 0.272 | 0.645 |
| O=C(Oc1ccc(NC2=NS(=O)(=O)c3ccccc32)cc1)c1ccccc1 | 0.239 | 0.62 |
| O=C(NC1(C(F)(F)F)C(=O)Nc2c1c(=O)[nH]c(=O)n2-c1ccccc1)c1ccc(Cl)cc1 (stereo not given) | 0.241 | 0.641 |
